# Assay results reported in article PMC12331980.
# Amino acid sequences for entries named in this document (tags omitted).
# UniProt Q5VTR2: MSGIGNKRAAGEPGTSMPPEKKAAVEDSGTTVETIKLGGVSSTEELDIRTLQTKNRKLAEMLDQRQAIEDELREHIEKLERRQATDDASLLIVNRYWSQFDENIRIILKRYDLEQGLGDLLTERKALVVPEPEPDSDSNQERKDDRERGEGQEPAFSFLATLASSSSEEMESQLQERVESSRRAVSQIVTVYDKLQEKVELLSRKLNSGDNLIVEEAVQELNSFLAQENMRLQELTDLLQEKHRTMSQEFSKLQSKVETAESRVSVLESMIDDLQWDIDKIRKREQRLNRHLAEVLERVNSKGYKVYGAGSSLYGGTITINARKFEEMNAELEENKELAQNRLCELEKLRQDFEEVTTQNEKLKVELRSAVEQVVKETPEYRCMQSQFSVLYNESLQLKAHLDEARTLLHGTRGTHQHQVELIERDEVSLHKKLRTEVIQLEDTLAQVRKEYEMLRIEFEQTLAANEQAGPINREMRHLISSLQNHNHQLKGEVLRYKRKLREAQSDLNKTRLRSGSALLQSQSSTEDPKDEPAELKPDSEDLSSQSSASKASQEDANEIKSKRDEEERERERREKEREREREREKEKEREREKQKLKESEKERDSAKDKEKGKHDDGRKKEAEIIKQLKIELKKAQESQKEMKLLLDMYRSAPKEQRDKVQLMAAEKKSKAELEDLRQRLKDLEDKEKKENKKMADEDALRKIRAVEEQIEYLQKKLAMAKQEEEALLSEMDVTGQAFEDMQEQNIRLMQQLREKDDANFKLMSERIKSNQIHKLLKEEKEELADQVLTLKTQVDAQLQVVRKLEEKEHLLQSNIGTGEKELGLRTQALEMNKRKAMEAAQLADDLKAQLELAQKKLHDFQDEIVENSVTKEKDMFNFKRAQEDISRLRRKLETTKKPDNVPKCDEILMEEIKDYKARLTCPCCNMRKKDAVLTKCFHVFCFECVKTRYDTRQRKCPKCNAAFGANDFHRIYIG
# UniProt P27694: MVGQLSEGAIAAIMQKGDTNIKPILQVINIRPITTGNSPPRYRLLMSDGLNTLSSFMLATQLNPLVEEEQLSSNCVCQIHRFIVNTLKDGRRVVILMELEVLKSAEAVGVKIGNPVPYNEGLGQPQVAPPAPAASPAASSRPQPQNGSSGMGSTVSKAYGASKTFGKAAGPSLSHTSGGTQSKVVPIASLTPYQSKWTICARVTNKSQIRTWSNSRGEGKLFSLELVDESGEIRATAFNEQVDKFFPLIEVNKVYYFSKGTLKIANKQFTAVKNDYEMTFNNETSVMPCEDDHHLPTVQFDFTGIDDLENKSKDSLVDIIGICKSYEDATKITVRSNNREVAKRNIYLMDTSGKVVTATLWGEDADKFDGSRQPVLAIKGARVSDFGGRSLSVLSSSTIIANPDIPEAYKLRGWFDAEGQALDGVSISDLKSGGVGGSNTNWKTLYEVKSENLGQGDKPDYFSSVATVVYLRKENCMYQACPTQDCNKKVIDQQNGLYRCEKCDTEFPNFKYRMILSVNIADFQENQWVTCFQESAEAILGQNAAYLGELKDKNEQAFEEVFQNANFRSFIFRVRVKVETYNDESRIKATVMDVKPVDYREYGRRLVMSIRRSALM
# Results are given in words; binding and its absence hold for the method and conditions named. In cells and extracts the contact can be indirect. Some results given as binding are weak or reduced against the parent protein; the word gives no strength.
# Biological target: RNF20 (human (endogenous in U2OS or HeLa)) (UniProt Q5VTR2)
# Experiment: co-IP; endogenous RNF20 precipitated with rabbit polyclonal anti-RNF20 antibody and protein G beads from 2 mg lysate (RIPA buffer without SDS, protease and phosphatase inhibitors), overnight at 4 °C; mock or HU-treated cells; western blot
substance,measurement,value
RPA70 (from UniProt P27694 1-616),binding,binds
